Article PMC6882211
These are yes or no findings as the source states them, for the method shown. Binding seen in cells or lysates may run through a third protein. Some binding calls cover weakened binding; strength is not graded here. Tags and fused reporters may be left off the sequences shown.

Biological target: T1, pTAC10-HA (Arabidopsis thaliana) (UniProt F4JF21)
T1 sequence: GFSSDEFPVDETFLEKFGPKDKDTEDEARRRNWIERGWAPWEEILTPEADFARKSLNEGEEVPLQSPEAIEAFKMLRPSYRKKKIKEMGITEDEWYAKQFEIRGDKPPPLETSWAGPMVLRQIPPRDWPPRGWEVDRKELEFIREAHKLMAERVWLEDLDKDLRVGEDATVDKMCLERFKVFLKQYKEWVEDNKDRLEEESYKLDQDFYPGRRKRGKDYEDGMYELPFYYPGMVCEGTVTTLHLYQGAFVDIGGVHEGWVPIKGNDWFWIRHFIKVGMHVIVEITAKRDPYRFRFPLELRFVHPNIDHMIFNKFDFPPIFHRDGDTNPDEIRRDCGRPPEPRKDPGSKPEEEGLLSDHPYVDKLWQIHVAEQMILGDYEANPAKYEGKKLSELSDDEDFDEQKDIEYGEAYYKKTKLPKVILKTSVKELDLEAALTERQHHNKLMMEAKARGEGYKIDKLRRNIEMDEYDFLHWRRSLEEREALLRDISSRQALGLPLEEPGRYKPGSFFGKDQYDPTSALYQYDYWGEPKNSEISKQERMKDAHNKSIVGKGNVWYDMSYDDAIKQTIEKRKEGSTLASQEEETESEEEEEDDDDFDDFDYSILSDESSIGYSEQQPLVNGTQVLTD
Assay: co-IP; protoplasts from 35S::FSD3-GFP or 35S::FSD3S-GFP plants transformed with 35S::pTAC10-HA; HA antibody precipitates, GFP antibody detects; as in Chang et al. (2017) with slight modification

binding: binds
B1: FSD3-GFP (protein, UniProt Q9FMX0 42-263)
chain: GGLKVEAYYGLKTPPYPLDALEPYMSRRTLEVHWGKHHRGYVDNLNKQLGKDDRLYGYTMEELIKATYNNGNPLPEFNNAAQVYNHDFFWESMQPGGGDTPQKGVLEQIDKDFGSFTNFREKFTNAALTQFGSGWVWLVLKREERRLEVVKTSNAINPLVWDDIPIICVDVWEHSYYLDYKNDRAKYINTFLNHLVSWNAAMSRMARAEAFVNLGEPNIPIA
